# The list shows a part of the results.
# System: T1, CTL2-GFP (C. trachomatis L2/434/Bu, GFP-expressing)
# T1 construct: L2/434/Bu, GFP-expressing
# Parameters: species or system HeLa; Intracellular C. trachomatis growth in HeLa cells, bulk GFP fluorescence relative to DMSO
# Details: bulk GFP, single well; 28.5 h, 10 µM; inhibitor
row,Structure (SMILES),% of control remaining
1,CC(=O)c1ccc(S(=O)(=O)NCc2ccc(C(F)(F)F)cc2)cc1 [CBK044314],123.984%
2,CC1=NN(c2ccccc2)C(=O)/C1=C\c1cn(CCC(=O)O)nc1-c1cc2ccccc2o1 [CBK265252],100%
3,CCNC(=S)N1CCN(C(=O)c2cccc(OC)c2)CC1 [CBK154778],136.895%
4,NC(=O)CCC(=O)N1CCC2(C/C=C/CCOc3ccccc3C(=O)NCCCNC2=O)CC1 [CBK292059],93.3017%
5,CCOC(=O)CNS(=O)(=O)c1cc(Cl)sc1Cl [CBK034431],127.655%
6,Cc1ccc2cc(CN(Cc3ccc4c(c3)OCO4)Cc3nnnn3Cc3ccco3)c(=O)[nH]c2c1 [CBK108949],114.987%
7,Cc1ccccc1CNC(=O)CN(c1cccc(C(F)(F)F)c1)S(=O)(=O)c1ccccc1 [CBK264047],110.029%
8,CC(=O)NS(=O)(=O)c1ccc(-c2ccc(/C=C(/C#N)c3nc4ccc(C)cc4[nH]3)o2)cc1 [CBK264771],100%
9,O=C(CCCN1C(=O)c2ccccc2C1=O)Nc1ccc(C(=O)O)cc1 [CBK287043],125.093%
10,CCn1cc(C(=O)NN)c(=O)c2cc(F)c(NN)cc21 [CBK262735],113.113%
11,Cc1nccn1C1CCCN(C(C)C(=O)NC2(C#N)CCCCC2)C1 (stereo not drawn) [CBK304194],97.0213%
12,COc1ccc(NC(=O)CSc2nnc(C(O)c3ccccc3)n2C)cc1 (stereo not drawn) [CBK266053],140.595%
13,COc1ccc(OCCN2CCc3ccccc3C2)cc1 [CBK126403],105.72%
14,Cc1ccc(N(CC(=O)NCC2CCCO2)S(=O)(=O)c2ccc(Cl)cc2)cc1 (stereo not drawn) [CBK269039],179.442%
15,CCCCC(c1ccc(Cl)cc1)N(CCN(C)C)c1ccccn1 (stereo not drawn) [CBK012315F],80.7107%
16,O=C(Oc1ccccc1)N1CCC(n2c(=O)[nH]c3ccccc32)CC1 [CBK149865],100.541%
17,CN(C)CCC(O)(c1ccccc1)c1cc2c(cc1Cl)CCC2 (stereo not drawn) [CBK010000C],131.665%
18,S=C(Nc1nc2c(s1)CCCC2)NC1CC1 [CBK288425],102.529%
19,CCn1ccnc1CN1CCCC(CCc2ccccc2F)C1 (stereo not drawn) [CBK307173],133.255%
20,O=C(C1CCCC1)N1CCC(n2c(=O)oc3ccccc32)CC1 [CBK284349],100.908%
21,CCC(C)NC(=O)C(Cc1ccc([N+](=O)[O-])cc1)N1C(=O)c2ccccc2C1=O (stereo not drawn) [CBK261278],96.1902%
22,CCNC(=O)N1CC2(CCN(C/C=C/c3ccccc3)CC2)c2ccccc21 [CBK144596T],103.883%
23,COc1ncc(-c2ccc(N3CCN(c4ccncc4)CC3)nc2)c(OC)n1 [CBK036848],126.581%
24,O=C1CSC2(C(=O)Nc3ccccc32)N1c1ccc2ccccc2c1 (stereo not drawn) [CBK093461],84.0523%
25,CCn1cc(CN(C)C(=S)Nc2cccc(C(C)=O)c2)c(C)n1 [CBK267040],154.283%
26,COc1ccc(C2(C(=O)NCc3ccncc3)CCOCC2)cc1 [CBK287991],125.443%

# 2 compounds picked at random from the list so far, as already listed:
row,Structure (SMILES),% of control remaining
21,CCC(C)NC(=O)C(Cc1ccc([N+](=O)[O-])cc1)N1C(=O)c2ccccc2C1=O (stereo not drawn) [CBK261278],96.1902%
15,CCCCC(c1ccc(Cl)cc1)N(CCN(C)C)c1ccccn1 (stereo not drawn) [CBK012315F],80.7107%

# The listing continues.

row,Structure (SMILES),% of control remaining
1,Cc1cc2c(SCc3cc(O)[nH]n3)ncnc2s1 [CBK269799],97.1216%
2,CCc1nnc(NS(=O)(=O)c2ccc(NC(=O)c3ccccc3[N+](=O)[O-])cc2)s1 [CBK045494],115.551%
3,COc1ccc(OC(=O)COc2nc3c(C)cc(C)nc3[nH]2)cc1 [CBK269290],96.7667%
4,CC(=O)c1c(C(=O)O)[nH]c(C(=O)O)c1C [CBK263934],125.919%
5,NCCCCCCNC(=O)c1c(O)c2ccccc2oc1=O [CBK261071],112.493%
6,Oc1c(Br)cc2oc3c(c2c1CNc1ccccc1)CCCC3 [CBK160397],121.66%
7,CC(=O)N/C(=C/c1ccccc1)C(=O)NCCC(=O)O [CBK264046],111.261%
8,COC[C@@H]1CCCN1S(=O)(=O)c1ccc(C(C)C)cc1 [CBK200045],160.282%
9,O=S(=O)(NCc1cccnc1)c1ccc(Cl)c(Cl)c1Cl [CBK264032],127.87%
10,Cc1ncsc1CCOc1cccc(C(F)(F)F)n1 [CBK115794],126.096%
11,COc1ccccc1CN1CCCC(c2nc(C)n3ccccc23)C1 (stereo not drawn) [CBK283026],121.289%
12,CN(C)C(=O)c1ccc(-c2cnc(N)c(-c3ccc(O)cc3)n2)cc1 [CBK116686],122.146%
13,Cc1cc2oc(C(=O)Nc3sc4c(c3C#N)CCCC4)c(C)c2cc1C [CBK266301],138.444%
14,Cc1noc(C)c1CC(=O)NC(CN1CCCCC1)c1ccccc1 (stereo not drawn) [CBK281507],137.401%
15,CCC(NC(=O)CCOC)c1cn2cccnc2n1 (stereo not drawn) [CBK306560],103.484%
16,CC(NC(=O)C1CC=CCC1C(=O)O)C1CC2CCC1C2 (stereo not drawn) [CBK027112],116.885%
17,CCCOc1ccc(C2(CCCCN3CCCC3)C(=O)Oc3ccc(C(C)(C)C)cc32)cc1 (stereo not drawn) [CBK017655C],100.365%
18,CC(C)(C)OC(=O)NCc1ccc(-c2ccc(Nc3cccnc3)nc2)cc1 [CBK037804],121.196%
19,COc1ccc(C2CC(c3cccc(Br)c3)Nc3ncnn32)cc1OC (stereo not drawn) [CBK294474],152.744%
20,CS(=O)(=O)c1ccc(Cn2ccnc(OC3CCN(C(=O)c4cccc(C#N)c4)CC3)c2=O)cc1 [CBK161810],103.419%
21,Cc1nnc(SCC(=O)N2CCCN(c3ccc(F)cc3)CC2)s1 [CBK306908],120.364%
22,O=C(CN1C(=O)C2C3C=CC(C3)C2C1=O)NCc1ccco1 (stereo not drawn) [CBK265116],134.402%
23,O=C(CSc1nnc(-c2ccccc2)n1-c1ccccc1)N/N=C/c1cccc2cccnc12 [CBK262863],108.006%
24,CC(Cn1cccn1)NS(=O)(=O)c1ccc(N2CCCC2=O)cc1 (stereo not drawn) [CBK305606],128.201%
25,O=C(O)c1ccc(CCN2CCCC2)nc1 [CBK034220],100.263%
26,Cc1ccc(OCC(=O)Nc2sc(C)c(C)c2C#N)c([N+](=O)[O-])c1 [CBK268162],128.007%

row,Structure (SMILES),% of control remaining
1,Cc1ncsc1C(=O)N1CCC[C@H](C(=O)c2cccs2)C1 [CBK284260],109.1%
2,Clc1ccc(CN2CCC(Oc3cncc(OCc4cccnc4)n3)C2)cc1Cl (stereo not drawn) [CBK084448],117.086%
3,Cc1ccc(OC(C)C(=O)Nc2ccccc2C(=O)N2CCN(C)CC2)cc1 (stereo not drawn) [CBK269802],127.855%
4,CN(C)CCN(C)C(=O)c1cc(Br)cnc1N(C)S(C)(=O)=O [CBK076476],117.431%
5,O=c1n(-c2ccc(OC(F)(F)F)cc2)ccn1S(=O)(=O)c1ccc(Cl)c(Cl)c1 [CBK106656],100.729%
6,c1ccc(-c2n[nH]cc2-c2cncn2CCCN2CCCCC2)cc1 [CBK281464],116.054%
7,CN1CCN(NC(=O)C23CCC(C)(C(=O)O2)C3(C)C)CC1 (stereo not drawn) [CBK268285],127.532%
8,O=C(O)c1ccc(-c2ccc(/C=C/c3[nH]c(=O)[nH]c(=O)c3[N+](=O)[O-])o2)cc1Cl [CBK267139],184.387%
9,N#Cc1c(Oc2cccc(Cl)c2Cl)cccc1C(F)(F)F [CBK002592],105.965%
10,CCOCCCNC(=O)c1ncoc1-c1ccc(F)cc1 [CBK282353],130.72%
11,CC(=O)Nc1ccc(CN(C)c2c(C)nc3c(OCc4ccc(C(F)(F)F)cc4)cccn23)cc1 [CBK147380],107.879%
12,Cc1cccc(C2NS(=O)(=O)NC2=N)c1 (stereo not drawn) [CBK263868],100%
13,O=C(OCc1ccccc1)N1CCC(c2nc3ccc(Br)cc3[nH]2)CC1 [CBK153849],133.725%
14,Cc1cc2c(cc1C)NC(CC(=O)Nc1ccc(N(C)C)cc1)C(=O)N2 (stereo not drawn) [CBK265595],100%
15,O=C(Nc1cccc(F)c1C(=O)Nc1ccc(F)cc1F)c1cccs1 [CBK066849],139.109%
16,C=CCn1c(SCC(=O)Nc2sc3c(c2C#N)CCC3)nc2scc(-c3ccccc3)c2c1=O [CBK264477],126.138%
17,CN1CC(C(=O)N2CCC(c3cc4ccccc4cn3)CC2)CC1=O (stereo not drawn) [CBK284870],115.218%
18,OC(COc1cccc2ccccc12)CN1CCN(C(c2ccccc2)c2ccccc2)CC1 (stereo not drawn) [CBK007591],142.599%
19,CC(C(=O)N1CCC(c2nn(C)c3ncccc23)CC1)c1ccccc1 (stereo not drawn) [CBK282166],115.66%
20,Cc1cc(C)c(S(=O)(=O)NCCN2CCN(S(=O)(=O)c3c(C)cc(C)cc3C)CC2)c(C)c1 [CBK265842],118.886%
21,COCCNc1nc(-c2cccs2)cn2ccnc12 [CBK066408],144.736%
22,COc1ccc(CN2CC[C@H]3[C@@H](C2)[C@H](c2ccsc2)CN3C(=O)c2ccccc2)cc1 [CBK285614],80.4138%
23,O=C(Cc1cc(F)cc(F)c1F)Nc1cccc2[nH]ccc12 [CBK159650],111.827%
24,c1cncc(CCOc2nccnc2N2CCNCC2)c1 [CBK014992],141.642%
25,Cc1nc2ccccc2c(=O)n1CCC(=O)N1CCc2sccc2C1c1ccco1 (stereo not drawn) [CBK285706],129.567%
26,CCOc1ccc(-c2ncncc2-c2ccccc2)c(O)c1 [CBK288111],152.769%

# Some of these compounds in order of molecular weight, smallest number first.
row,Structure (SMILES),% of control remaining
10,CCn1cc(C(=O)NN)c(=O)c2cc(F)c(NN)cc21 [CBK262735],113.113%
22,O=C(CN1C(=O)C2C3C=CC(C3)C2C1=O)NCc1ccco1 (stereo not drawn) [CBK265116],134.402%
3,CCNC(=S)N1CCN(C(=O)c2cccc(OC)c2)CC1 [CBK154778],136.895%
3,COc1ccc(OC(=O)COc2nc3c(C)cc(C)nc3[nH]2)cc1 [CBK269290],96.7667%

# Source: PMC12040169 (PLOS Biology, 2025)
